Measured values taken from publication doi:10.1101/589580.

Molecular target: T1, full-length ZO3 with C-terminal mEGFP (UniProt O95049)
T1 sequence: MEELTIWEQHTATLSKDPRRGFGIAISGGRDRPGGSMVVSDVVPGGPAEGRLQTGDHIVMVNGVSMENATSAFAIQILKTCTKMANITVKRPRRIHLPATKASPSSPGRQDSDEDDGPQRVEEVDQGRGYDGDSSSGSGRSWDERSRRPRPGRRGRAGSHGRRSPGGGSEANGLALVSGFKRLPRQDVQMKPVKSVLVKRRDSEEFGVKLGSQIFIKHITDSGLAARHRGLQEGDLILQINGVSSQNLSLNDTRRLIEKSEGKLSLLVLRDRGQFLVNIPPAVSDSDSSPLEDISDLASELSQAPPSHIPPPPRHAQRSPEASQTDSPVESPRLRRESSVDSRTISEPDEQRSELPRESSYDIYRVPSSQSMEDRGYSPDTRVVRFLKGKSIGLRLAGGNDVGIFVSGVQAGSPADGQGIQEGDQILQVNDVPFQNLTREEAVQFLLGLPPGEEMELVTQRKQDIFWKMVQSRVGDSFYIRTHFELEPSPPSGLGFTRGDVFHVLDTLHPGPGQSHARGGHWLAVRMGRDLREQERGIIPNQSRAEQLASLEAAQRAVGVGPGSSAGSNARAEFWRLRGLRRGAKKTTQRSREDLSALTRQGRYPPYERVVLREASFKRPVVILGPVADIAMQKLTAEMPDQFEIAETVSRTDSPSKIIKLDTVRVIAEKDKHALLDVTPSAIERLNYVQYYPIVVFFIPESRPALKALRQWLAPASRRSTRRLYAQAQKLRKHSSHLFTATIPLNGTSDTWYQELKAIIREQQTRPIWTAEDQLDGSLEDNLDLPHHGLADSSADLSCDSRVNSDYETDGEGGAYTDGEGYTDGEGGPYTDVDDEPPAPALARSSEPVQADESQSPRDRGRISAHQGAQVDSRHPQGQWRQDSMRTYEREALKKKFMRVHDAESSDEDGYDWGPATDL
Experiment: client partitioning into phase-separated droplets

| binding | Substance |
| --- | --- |
| binds | ZO3 N-terminal fragment, mCherry-labelled (domain or fragment) |
| no binding | ZO3 C-terminal fragment, mCherry-labelled (domain or fragment) |
| no binding | ZO1 C-terminal fragment, mCherry-labelled (domain or fragment) |
| binds | ZO1 N-terminal fragment, mCherry-labelled (domain or fragment) |

These are yes or no findings as the source states them, for the method shown. A result given as binding can be weak or reduced; the word gives no strength. Tags and fused reporters may be left off the sequences shown.
